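Methionyl-tRNA synthetase (putative), Leishmania donovani (UniProt E9BF75). Primary screen of methionyl-tRNA synthetase; the read-out is not stated. The test concentration is not given. The values are filed as inhibition. Size under these conditions: about 68,000 compounds, about 24 of them at 50% or above in at least one test.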

Sequences of proteins named here, by UniProt entry; tags and fusion partners are left off.
UniProt E9BF75, entry or part of it: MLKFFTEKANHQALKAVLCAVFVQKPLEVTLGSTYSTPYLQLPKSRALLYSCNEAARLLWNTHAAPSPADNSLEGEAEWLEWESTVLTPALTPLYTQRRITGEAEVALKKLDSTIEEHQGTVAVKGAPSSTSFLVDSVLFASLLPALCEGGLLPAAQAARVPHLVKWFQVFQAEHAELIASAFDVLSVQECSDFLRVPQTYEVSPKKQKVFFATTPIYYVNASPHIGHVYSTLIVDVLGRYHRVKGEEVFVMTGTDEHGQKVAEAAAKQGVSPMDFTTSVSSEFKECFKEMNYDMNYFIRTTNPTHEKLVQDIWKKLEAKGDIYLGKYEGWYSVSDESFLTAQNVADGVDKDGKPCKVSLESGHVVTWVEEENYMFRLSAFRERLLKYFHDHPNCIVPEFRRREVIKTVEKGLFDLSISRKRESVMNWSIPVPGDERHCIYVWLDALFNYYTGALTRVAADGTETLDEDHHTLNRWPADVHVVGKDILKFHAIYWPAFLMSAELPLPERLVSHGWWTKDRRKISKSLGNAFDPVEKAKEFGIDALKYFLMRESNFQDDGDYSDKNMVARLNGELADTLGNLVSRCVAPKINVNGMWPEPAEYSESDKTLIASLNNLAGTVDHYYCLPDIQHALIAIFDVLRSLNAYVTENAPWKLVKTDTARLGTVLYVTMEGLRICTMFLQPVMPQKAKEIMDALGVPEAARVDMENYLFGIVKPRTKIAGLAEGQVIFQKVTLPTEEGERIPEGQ

All values are in %. The record does not define 0% and 100%; most values in the screen are far below 50% and negative numbers occur (in some assays of this library far below -100). The compounds are a random part of those screened.

For CCOCCCNCc1cc2c(C)cc(C)cc2n2c(=O)n(C)nc12 the result was 19.21%. With CCn1ncnc1C1CC(=O)NCc2nc(N3CCCC3)sc21 (centres unmarked) the screen gave 9.288%. COc1ccc(C)cc1CN1CCn2cccc2C1C (centres unmarked) read 31.83%. CN(C)CCN1C[C@@H]2CN(S(=O)(=O)c3cccs3)C[C@@H]2C1=O gave -9.444%. For COC(=O)CCC(=O)N1CCc2[nH]nc(-c3ccc(F)c(F)c3)c2C1 the result was 11.52%. Result for CCN(Cc1nc2c(cnn2C)c(=O)[nH]1)Cc1ccco1 was 15.1%. Result for Cn1cnc2c1C(COCC1CC1)CN(C(=O)c1ccsc1)C2 (centres unmarked) was 9.929%.

CCCc1cncnc1N1CCC2(CCC(=O)N(CCOC)C2)CC1 read 12.93%. Result for Cc1cc(C(=O)N2C[C@H](c3ccccc3)[C@@H](N)C2)c2ccc(F)cc2n1 was 15.89%. For CN1CCN2CCN(Cc3cnc(NCc4ccccc4)nc3)CC2C1 (centres unmarked) the result was -4.861%. COc1ccc(CC(=O)NC(CC(=O)O)c2ccc(F)cc2)cc1OC (centres unmarked) gave 9.358%. With Cc1ncncc1C(=O)N1CCC(O)(CN(C)Cc2ccc(F)cc2)C1 (centres unmarked) the screen gave 8.333%. OCCN1CCN(CC2(O)CCCCC2)CC1 gave 7.474%. O=C(CNC(=O)C1CCCC1)NCC(O)c1ccc2ccccc2c1 (centres unmarked) read 15.32%.

C=Cn1ncc(CN2C[C@@H]3CCCN3C[C@H]2CCSC)c1C gave 11.99%. COc1cc2c(nn1)CCN(CC(O)COc1ccc(C#N)cc1)C2 (centres unmarked) gave 14.51%. Result for Cc1cc2c(=O)n(CCOCCO)cnc2s1 was 11.62%. CCN(Cc1ccncc1)Cc1cn(-c2ccccc2)nn1 gave 22.78%. CN(C)c1ccc(CNCc2cnc(N3CCOCC3)nc2)cn1 gave 14.73%. For CC(C)(CO)CCCNC(=O)N1CCc2c(F)ccc(F)c2C1 the result was 11.02%. N#Cc1ccc(NCCC2CCN(CC(F)(F)F)CC2)nc1 read 4.188%.

With COC(=O)c1cccn1C1CCN(C(=O)c2cc(F)ccc2C)CC1 the screen gave 12.82%. With COc1ccc(CC(=O)N2CCCC(Cn3cc(CN)nn3)C2)cc1 (centres unmarked) the screen gave 15.85%. CC(C)(C)n1cc(CNC2CCN(C(=O)c3ccco3)CC2)cn1 gave 1.504%. COc1ccccc1[C@@H]1CN(Cc2csc(C(C)=O)c2)C[C@H]1C(=O)O read 10.11%. For O=C(c1ccco1)N1CCCC(c2cc(C(F)(F)F)n3ncnc3n2)C1 (centres unmarked) the result was 1.13%. Cc1c(Cn2ccnc2-c2cc(CN(C)C)cs2)cnn1C read 4.375%. With CN(Cc1nccn1C)c1ccc(-c2nccn2C)nn1 the screen gave 2.091%.

With c1ccc(OCc2n[nH]c3c2CN(Cc2cccs2)C3)nc1 the screen gave 17.77%.

The last 3 entries again:

* Cc1c(Cn2ccnc2-c2cc(CN(C)C)cs2)cnn1C | 4.375%
* CN(Cc1nccn1C)c1ccc(-c2nccn2C)nn1 | 2.091%
* c1ccc(OCc2n[nH]c3c2CN(Cc2cccs2)C3)nc1 | 17.77%

Source: ChEMBL document CHEMBL3988442, “University of Dundee, Small-Polar-MMV Screening Library” (2021).